Among all 1,200 compounds or so, about 110 (9.2%) were called active. Not shown: some 8% with an inconclusive outcome.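 The calls were made as follows: active = pathway reporter half-maximal dose under half the control reporter's, or control reporter unaffected while pathway reporter is inhibited; inconclusive = either signal flat at 30 to 70% inhibition or poorly fitted; inactive = the rest.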 This is a selection; strong and weak results do not stand in their true shares. Potency and affinity values are given separately.

The test in a line: TES1-eGFP NF-kB reporter inhibition versus Tet-On dsRED, dose response, selectivity assay for LMP1 NF-kB inhibitor project, imaging, HEK293T, dual-color eGFP/dsRED, cherry-picks (AID 588398).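 Also: 0% = median of neutral control wells and -100% = median of MG132 positive control wells.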 To be noted: HEK293T Tet-On dsRED counter-screen channel, 48 h; at 19.5 µM (top of the series). For orientation: Counterscreens check selectivity or assay interference.
On to `CC(=NNC(=S)N1CC2CCC(CC2)C1)c1nccs1`, for which the activity change, negative = inhibition is inactive: -99.8%.

As to `O=c1[nH]c(CN2CC=C(c3ccccc3)CC2)nc2cc(C(F)(F)F)ccc12`, the activity change, negative = inhibition is inactive: -1.87%. Take `Cc1nc2ccccc2n1C1CCN(Cc2nnnn2CCc2ccccc2)CC1`: the activity change, negative = inhibition was inactive: -0.604%. In the case of `Cc1cc(C)n(-c2ccc(NN=C(C#N)C#N)cc2)n1`, the activity change, negative = inhibition is inactive: -98.1%.

Consider `O=C(CCCc1ccc(N(CCCl)CCCl)cc1)NCc1ccccc1`, for which the activity change, negative = inhibition is inactive: 174%. Turning to `O=C(N/N=C/c1c(O)n(C2CCCCC2)c(=S)[nH]c1=O)c1ccccc1O`, the activity change, negative = inhibition is inactive: 4.37%.

On to `CCN(CC)CCCN=Cc1c(O)n(Cc2ccc(F)cc2)c(=O)[nH]c1=O`, for which the activity change, negative = inhibition is inactive: -12.8%. Regarding `O=C(NN=Cc1ccc(N(CCCl)CCCl)cc1)c1cccnc1`, the activity change, negative = inhibition was inactive: -28.1%. Consider `O=C(NN=Cc1ccc(N(CCCl)CCCl)cc1Cl)c1cccnc1`, for which the activity change, negative = inhibition was inactive: -97.6%. As for `N#CC(C#N)=NNc1ccc(-n2ccc(C(F)(F)F)n2)cc1`, the activity change, negative = inhibition is inactive: -85.3%. On to `CC1(CCCc2ccc(N(CCCl)CCCl)cc2)NC(=O)NC1=O` (stereo unspecified), for which the activity change, negative = inhibition is inactive: 13.3%. `CC1(C(=O)O)CC12c1ccccc1-c1ccccc12` (stereo unspecified): the activity change, negative = inhibition was inactive: 11%.

Turning to `N#Cc1ncc(N=Cc2ccc(N(CCCl)CCCl)cc2)s1`, the activity change, negative = inhibition is inactive: -58.8%.

As for `CCn1c(O)c(C=Nc2ccc(N3CCOCC3)c(Br)c2)c(=O)n(CC)c1=S`, the activity change, negative = inhibition is inactive: 10.6%. The result for `COC(=O)C1=C(c2ccc3ccccc3c2)C[C@@H]2CC[C@H]1N2C(=O)N1CCC(O)CC1` reads inactive: 16.3%; that for `CCN(CC)C(=O)c1ccc(NC(=O)Nc2ccccc2F)cc1`, inactive: 29.6%.

Source of the values: PubChem BioAssay AID588398 (Broad Institute, 2011).
